# Assay results: PMC3287035
# Chains of the proteins cited; added tags and fusions are not shown. Residues count along the entry.
# UniProt P36980, residues 19-270: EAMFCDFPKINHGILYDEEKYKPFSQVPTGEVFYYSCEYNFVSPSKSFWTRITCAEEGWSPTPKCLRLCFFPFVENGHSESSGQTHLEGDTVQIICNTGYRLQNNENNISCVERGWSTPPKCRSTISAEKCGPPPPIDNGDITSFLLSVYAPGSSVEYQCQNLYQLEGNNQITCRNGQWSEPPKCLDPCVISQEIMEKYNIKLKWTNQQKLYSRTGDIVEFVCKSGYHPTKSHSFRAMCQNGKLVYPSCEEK
# UniProt Q03591, residues 19-330: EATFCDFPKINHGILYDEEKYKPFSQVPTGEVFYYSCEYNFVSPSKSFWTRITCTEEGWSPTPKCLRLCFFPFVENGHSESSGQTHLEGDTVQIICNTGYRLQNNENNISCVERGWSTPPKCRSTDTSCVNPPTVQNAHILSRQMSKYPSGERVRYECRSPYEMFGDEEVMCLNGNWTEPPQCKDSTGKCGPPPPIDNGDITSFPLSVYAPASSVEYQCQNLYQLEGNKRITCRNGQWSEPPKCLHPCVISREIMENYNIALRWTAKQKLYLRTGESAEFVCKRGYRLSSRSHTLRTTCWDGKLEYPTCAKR
# B1: CFH-related protein 5 (CFHR5) of normal human serum (protein, UniProt Q9BXR6 19-569)
# chain: EGTLCDFPKIHHGFLYDEEDYNPFSQVPTGEVFYYSCEYNFVSPSKSFWTRITCTEEGWSPTPKCLRMCSFPFVKNGHSESSGLIHLEGDTVQIICNTGYSLQNNEKNISCVERGWSTPPICSFTKGECHVPILEANVDAQPKKESYKVGDVLKFSCRKNLIRVGSDSVQCYQFGWSPNFPTCKGQVRSCGPPPQLSNGEVKEIRKEEYGHNEVVEYDCNPNFIINGPKKIQCVDGEWTTLPTCVEQVKTCGYIPELEYGYVQPSVPPYQHGVSVEVNCRNEYAMIGNNMITCINGIWTELPMCVATHQLKRCKIAGVNIKTLLKLSGKEFNHNSRIRYRCSDIFRYRHSVCINGKWNPEVDCTEKREQFCPPPPQIPNAQNMTTTVNYQDGEKVAVLCKENYLLPEAKEIVCKDGRWQSLPRCVESTAYCGPPPSINNGDTTSFPLSVYPPGSTVTYRCQSFYKLQGSVTVTCRNKQWSEPPRCLDPCVVSEENMNKNNIQLKWRNDGKLYAKTGDAVEFQCKFPHKAMISSPPFRAICQEGKFEYPICE
# B2: recombinant CFHR5 (protein, UniProt Q9BXR6 19-569)
# chain: EGTLCDFPKIHHGFLYDEEDYNPFSQVPTGEVFYYSCEYNFVSPSKSFWTRITCTEEGWSPTPKCLRMCSFPFVKNGHSESSGLIHLEGDTVQIICNTGYSLQNNEKNISCVERGWSTPPICSFTKGECHVPILEANVDAQPKKESYKVGDVLKFSCRKNLIRVGSDSVQCYQFGWSPNFPTCKGQVRSCGPPPQLSNGEVKEIRKEEYGHNEVVEYDCNPNFIINGPKKIQCVDGEWTTLPTCVEQVKTCGYIPELEYGYVQPSVPPYQHGVSVEVNCRNEYAMIGNNMITCINGIWTELPMCVATHQLKRCKIAGVNIKTLLKLSGKEFNHNSRIRYRCSDIFRYRHSVCINGKWNPEVDCTEKREQFCPPPPQIPNAQNMTTTVNYQDGEKVAVLCKENYLLPEAKEIVCKDGRWQSLPRCVESTAYCGPPPSINNGDTTSFPLSVYPPGSTVTYRCQSFYKLQGSVTVTCRNKQWSEPPRCLDPCVVSEENMNKNNIQLKWRNDGKLYAKTGDAVEFQCKFPHKAMISSPPFRAICQEGKFEYPICE
# Key:
# [1] = target: recombinant amino-terminally polyhistidine-tagged CRASP-4 (ErpC) of B. burgdorferi (B. burgdorferi (strain LW2, erpC identical to type strain B31)) (UniProt Q44790); assay: ELISA; CRASP-4 (5 μg/mL) coated on microtiter plates; equimolar amounts (33 μM) of CFH, CFHR1, CFHR2 or CFHR5 added for 1 h at RT; detection with goat CFH antiserum or MAb JHD 7.10; both purified
# [2] = target: CRASP-4 (ErpC) ectopically produced in B. garinii G1/pCRASP-4 (B. burgdorferi (strain LW2, erpC identical to type strain B31)) (UniProt Q44790); assay: serum adsorption assay on live bacteria; 1 × 10^9 borrelial cells in 750 μL NHS with 34 mM EDTA for 1 h, washed with PBS 0.01% Tween 20, bound proteins eluted with 100 mM glycine-HCl pH 2.0; Western blot with polyclonal anti-CFHR1 antiserum
# [3] = target: recombinant amino-terminally polyhistidine-tagged CRASP-4 (ErpC) of B. burgdorferi (B. burgdorferi (strain LW2, erpC identical to type strain B31)) (UniProt Q44790); assay: pull-down; purified His-tagged CRASP-4 (20 μg) on Dynabeads TALON magnetic beads, incubated with NHS 1 h on ice, washed with 50 mM phosphate, 300 mM NaCl, 0.01% Tween 20, eluted with 100 mM glycine-HCl pH 2.0; silver stain and Western blot, nonreducing SDS-PAGE; only the target purified
# [4] = target: CRASP-4 (ErpC) ectopically produced in B. garinii G1/pCRASP-4 (B. burgdorferi (strain LW2, erpC identical to type strain B31)) (UniProt Q44790); assay: serum adsorption assay on live bacteria; 1 × 10^9 borrelial cells in 750 μL NHS with 34 mM EDTA for 1 h, washed with PBS 0.01% Tween 20, bound proteins eluted with 100 mM glycine-HCl pH 2.0; Western blot with polyclonal anti-CFHR1 antiserum; remark: listed apart in the source
Molecule,binding [1],binding [2],binding [3],binding [4]
recombinant CFHR2 (from UniProt P36980 19-270),binds,–,–,–
CFH-related protein 2 (CFHR2) of normal human serum (from UniProt P36980 19-270),–,binds,binds,–
recombinant CFHR1 (from UniProt Q03591 19-330),binds,–,–,–
CFH-related protein 1 (CFHR1) of normal human serum (from UniProt Q03591 19-330),–,binds,binds,–
B1,–,–,binds,binds weakly
B2,binds,–,–,–

# Like-named read-outs stand apart in the source and are kept apart here. These are yes or no findings as the source states them, for the method shown. Binding calls can cover weak binding; strength is not graded here. For part of these data: In cells and extracts the contact can be indirect.
